Laboratory results taken from PubChem BioAssay AID248 (DTP/NCI, 2004).
The list shows only some results of the screen, not a fair sample: it covers a few groups of compounds. Not every dose and run of a compound is shown. T/C gives the treated animals as a percentage of the vehicle group. For survival time, this PubChem deposit counts one and a half times the control or more as active, and values a quarter to a half above the control carry no call in these data; other NCI protocols may use other cut-offs. Some entries show no survivor count and are marked so; the dose need not have been tolerated. Schedule codes are those of the source, read here as Q, the interval in days (D) or hours (H), X, the number of doses. Some entries hold several experiments; the results are listed from low to high. Counts like (3×) say how often a value occurs here. Some schedules carry Z or #; the key to these is not given.

System: L1210 leukemia ip in BDF1 mice, survival T/C
Test: NCI In Vivo Anticancer Drug Screen. Data for tumor model L1210 Leukemia (intraperitoneal) in B6D2F1 (BDF1) mice
Settings: T/C endpoint: mean survival time, higher T/C = longer survival

`NC1CCCCC1.NP(=O)(O)N(CCCl)CCCl` was tested. Which T/C (dose: 0.63 mg/kg/injection, schedule: Q03HX008 (ip), vehicle: saline) did it give?
The T/C was 108 % of control [survivor count not shown].

What about the T/C (dose: 0.63 mg/kg/injection, schedule: Q03HX024 (ip), vehicle: saline) of the same compound?
The T/C was 126 % of control [survivor count not shown].

What about the T/C (dose: 1.25 mg/kg/injection, schedule: Q03HX008 (ip), vehicle: saline) of the same compound?
The T/C was 132 % of control [survivor count not shown].

What about the T/C (dose: 1.25 mg/kg/injection, schedule: Q03HX024 (ip), vehicle: saline) of the same compound?
The T/C was 144 % of control [survivor count not shown].

And the T/C (dose: 1.56 mg/kg/injection, schedule: Q## X040 (ip), vehicle: saline)?
The T/C was 100 % of control [survivor count not shown].

And the T/C (dose: 2.5 mg/kg/injection, schedule: Q03HX008 (ip), vehicle: saline)?
The T/C was 179 % of control [survivor count not shown].

And the T/C (dose: 2.5 mg/kg/injection, schedule: Q03HX024 (ip), vehicle: saline)?
Its T/C is 143 % of control [survivor count not shown].

What about the T/C (dose: 3.12 mg/kg/injection, schedule: Q## X040 (ip), vehicle: saline) of the same compound?
Its T/C is 105 % of control [survivor count not shown].

What about the T/C (dose: 5.0 mg/kg/injection, schedule: Q01DX Z (ip), vehicle: clinical formulation) of the same compound?
The T/C was 125 % of control [survivor count not shown].

And the T/C (dose: 5.0 mg/kg/injection, schedule: Q01DX Z (ip), vehicle: water)?
Its T/C is 119 % of control [survivor count not shown].

And the T/C (dose: 6.25 mg/kg/injection, schedule: Q01DX009 (ip), vehicle: water)?
The T/C was 113 % of control [survivor count not shown].

What about the T/C (dose: 6.25 mg/kg/injection, schedule: Q03HX008 (ip), vehicle: saline) of the same compound?
Its T/C is 113 % of control [survivor count not shown].

What about the T/C (dose: 6.25 mg/kg/injection, schedule: Q03HX024 (ip), vehicle: saline) of the same compound?
Its T/C is 121 % of control [survivor count not shown].

And the T/C (dose: 6.25 mg/kg/injection, schedule: Q## X040 (ip), vehicle: saline)?
The T/C was 125 % of control [survivor count not shown].

And the T/C (dose: 6.25 mg/kg/injection, schedule: Q#A X034 (ip), vehicle: saline)?
The T/C was 117 % of control [survivor count not shown].

What about the T/C (dose: 10.0 mg/kg/injection, schedule: Q01DX005 (ip), vehicle: saline) of the same compound?
The T/C was 111 % of control [survivor count not shown].

And the T/C (dose: 10.0 mg/kg/injection, schedule: Q01DX009 (ip), vehicle: saline)?
Its T/C is 130 % of control [survivor count not shown].

And the T/C (dose: 10.0 mg/kg/injection, schedule: Q01DX009 (sc), vehicle: saline)?
Its T/C is 97 % of control [survivor count not shown].

What about the T/C (dose: 10.0 mg/kg/injection, schedule: Q01DX Z (ip), vehicle: clinical formulation) of the same compound?
Its T/C is 152 % of control [survivor count not shown].

And the T/C (dose: 10.0 mg/kg/injection, schedule: Q01DX Z (ip), vehicle: water)?
The T/C was 133 % of control [survivor count not shown].

And the T/C (dose: 12.5 mg/kg/injection, schedule: Q01DX005 (ip), vehicle: saline)?
Its T/C is 109 % of control [survivor count not shown].

And the T/C (dose: 12.5 mg/kg/injection, schedule: Q01DX009 (ip), vehicle: saline)?
Its T/C is 119 % of control [survivor count not shown].

What about the T/C (dose: 12.5 mg/kg/injection, schedule: Q01DX009 (ip), vehicle: water) of the same compound?
The T/C was 123 % of control [survivor count not shown].

And the T/C (dose: 12.5 mg/kg/injection, schedule: Q01DX017 (ip), vehicle: saline)?
The T/C was 119 % of control [survivor count not shown].

What about the T/C (dose: 12.5 mg/kg/injection, schedule: Q03HX008 (ip), vehicle: saline) of the same compound?
Its T/C is 149 % of control [survivor count not shown].

What about the T/C (dose: 12.5 mg/kg/injection, schedule: Q03HX024 (ip), vehicle: saline) of the same compound?
Its T/C is 147 % of control [survivor count not shown].

What about the T/C (dose: 12.5 mg/kg/injection, schedule: Q#A X034 (ip), vehicle: saline) of the same compound?
The T/C was 133 % of control [survivor count not shown].

What about the T/C (dose: 18.0 mg/kg/injection, schedule: Q01DX009 (ip), vehicle: saline) of the same compound?
Its T/C is 146 % of control [survivor count not shown].

What about the T/C (dose: 20.0 mg/kg/injection, schedule: Q01DX005 (ip), vehicle: saline) of the same compound?
The T/C was 141 % of control [survivor count not shown].

And the T/C (dose: 20.0 mg/kg/injection, schedule: Q01DX009 (ip), vehicle: saline)?
The T/C was 156 % of control [survivor count not shown].

And the T/C (dose: 20.0 mg/kg/injection, schedule: Q01DX009 (sc), vehicle: saline)?
Its T/C is 98 % of control [survivor count not shown].

And the T/C (dose: 20.0 mg/kg/injection, schedule: Q01DX Z (ip), vehicle: clinical formulation)?
The T/C was 182 % of control [survivor count not shown].

And the T/C (dose: 20.0 mg/kg/injection, schedule: Q01DX Z (ip), vehicle: water)?
Its T/C is 151 % of control [survivor count not shown].

What about the T/C (dose: 24.0 mg/kg/injection, schedule: Q04DX003 (ip), vehicle: clinical formulation) of the same compound?
The T/C was 155 % of control [survivor count not shown].

And the T/C (dose: 24.0 mg/kg/injection, schedule: Q04DX003 (ip), vehicle: water)?
The T/C was 144 % of control [survivor count not shown].

What about the T/C (dose: 25.0 mg/kg/injection, schedule: Q01DX001 (ip), vehicle: water) of the same compound?
The T/C was 136 % of control [survivor count not shown].

What about the T/C (dose: 25.0 mg/kg/injection, schedule: Q01DX005 (ip), vehicle: saline) of the same compound?
Its T/C is 138 % of control [survivor count not shown].

What about the T/C (dose: 25.0 mg/kg/injection, schedule: Q01DX009 (ip), vehicle: saline) of the same compound?
Its T/C is 107 % of control [survivor count not shown].

What about the T/C (dose: 25.0 mg/kg/injection, schedule: Q01DX009 (ip), vehicle: water) of the same compound?
Its T/C is 151 % of control [survivor count not shown].

And the T/C (dose: 25.0 mg/kg/injection, schedule: Q01DX017 (ip), vehicle: saline)?
The T/C was 135 % of control [survivor count not shown].

What about the T/C (dose: 25.0 mg/kg/injection, schedule: Q02DX005 (ip), vehicle: saline) of the same compound?
The T/C was 112 % of control [survivor count not shown].

And the T/C (dose: 25.0 mg/kg/injection, schedule: Q02DX009 (ip), vehicle: saline)?
The T/C was 125 [survivor count not shown] and 151 % of control [survivor count not shown].

What about the T/C (dose: 25.0 mg/kg/injection, schedule: Q03HX008 (ip), vehicle: saline) of the same compound?
The T/C was 164 % of control [survivor count not shown].

And the T/C (dose: 25.0 mg/kg/injection, schedule: Q03HX024 (ip), vehicle: saline)?
Its T/C is 234 % of control [survivor count not shown].

And the T/C (dose: 25.0 mg/kg/injection, schedule: Q04DX003 (ip), vehicle: water)?
Its T/C is 121 % of control [survivor count not shown].

And the T/C (dose: 25.0 mg/kg/injection, schedule: Q#A X034 (ip), vehicle: saline)?
Its T/C is 207 % of control [survivor count not shown].

What about the T/C (dose: 27.0 mg/kg/injection, schedule: Q01DX009 (ip), vehicle: saline) of the same compound?
The T/C was 160 % of control [survivor count not shown].

What about the T/C (dose: 27.0 mg/kg/injection, schedule: Q08DX002 (ip), vehicle: water) of the same compound?
Its T/C is 140 [survivor count not shown] and 142 % of control [survivor count not shown].

And the T/C (dose: 36.0 mg/kg/injection, schedule: Q04DX003 (ip), vehicle: clinical formulation)?
Its T/C is 160 % of control [survivor count not shown].

And the T/C (dose: 36.0 mg/kg/injection, schedule: Q04DX003 (ip), vehicle: water)?
Its T/C is 168 % of control [survivor count not shown].

What about the T/C (dose: 40.0 mg/kg/injection, schedule: Q01DX001 (ip), vehicle: saline) of the same compound?
Its T/C is 146 % of control [survivor count not shown].

What about the T/C (dose: 40.0 mg/kg/injection, schedule: Q01DX001 (sc), vehicle: saline) of the same compound?
The T/C was 100 % of control [survivor count not shown].

What about the T/C (dose: 40.0 mg/kg/injection, schedule: Q01DX005 (ip), vehicle: saline) of the same compound?
The T/C was 208 % of control [survivor count not shown].

What about the T/C (dose: 40.0 mg/kg/injection, schedule: Q01DX009 (ip), vehicle: saline) of the same compound?
Its T/C is 216 [survivor count not shown] and 221 % of control [survivor count not shown].

What about the T/C (dose: 40.0 mg/kg/injection, schedule: Q01DX009 (oral), vehicle: saline) of the same compound?
The T/C was 100 % of control [survivor count not shown].

And the T/C (dose: 40.0 mg/kg/injection, schedule: Q01DX009 (sc), vehicle: saline)?
The T/C was 119 % of control [survivor count not shown].

What about the T/C (dose: 40.0 mg/kg/injection, schedule: Q01DX Z (ip), vehicle: clinical formulation) of the same compound?
The T/C was 244 % of control [survivor count not shown].

And the T/C (dose: 40.0 mg/kg/injection, schedule: Q04DX003 (ip), vehicle: saline)?
Its T/C is 162 % of control [survivor count not shown].

What about the T/C (dose: 40.0 mg/kg/injection, schedule: Q08DX002 (ip), vehicle: water) of the same compound?
The T/C was 134 [survivor count not shown] and 144 % of control [survivor count not shown].

And the T/C (dose: 44.0 mg/kg/injection, schedule: Q01DX001 (ip), vehicle: saline)?
The T/C was 148 % of control [survivor count not shown].

What about the T/C (dose: 50.0 mg/kg/injection, schedule: Q01DX001 (ip), vehicle: saline) of the same compound?
The T/C was 106 [survivor count not shown], 123 [survivor count not shown], 128 [survivor count not shown] (2×), 143 % of control [survivor count not shown] (2×).

What about the T/C (dose: 50.0 mg/kg/injection, schedule: Q01DX001 (ip), vehicle: water) of the same compound?
The T/C was 143 % of control [survivor count not shown].

What about the T/C (dose: 50.0 mg/kg/injection, schedule: Q01DX005 (ip), vehicle: saline) of the same compound?
The T/C was 265 % of control [survivor count not shown].

What about the T/C (dose: 50.0 mg/kg/injection, schedule: Q01DX009 (ip), vehicle: saline) of the same compound?
Its T/C is 192 % of control [survivor count not shown].

And the T/C (dose: 50.0 mg/kg/injection, schedule: Q01DX009 (ip), vehicle: water)?
Its T/C is 187 % of control [survivor count not shown].

What about the T/C (dose: 50.0 mg/kg/injection, schedule: Q01DX017 (ip), vehicle: saline) of the same compound?
The T/C was 209 % of control [survivor count not shown].

What about the T/C (dose: 50.0 mg/kg/injection, schedule: Q02DX005 (ip), vehicle: saline) of the same compound?
Its T/C is 160 % of control [survivor count not shown].

What about the T/C (dose: 50.0 mg/kg/injection, schedule: Q02DX009 (ip), vehicle: saline) of the same compound?
Its T/C is 139 [survivor count not shown] and 242 % of control [survivor count not shown].
